Measured values published in PubChem BioAssay AID652054 (National Center for Advancing Translational Sciences (NCATS), 2013).
Among all 360,000 compounds or so, about 9,100 (2.5%) were called active. This list was built around the results that the source calls inconclusive (neither active nor inactive); the mix of calls is not that of the screen. Cut-off read from the data, not from the text of the source: active = max response below about -50%; inconclusive = no clear call, values can overlap the other calls; inactive = above that.

Chains of the proteins cited; added tags and fusions are not shown.
UniProt P35462, whole entry, looked up: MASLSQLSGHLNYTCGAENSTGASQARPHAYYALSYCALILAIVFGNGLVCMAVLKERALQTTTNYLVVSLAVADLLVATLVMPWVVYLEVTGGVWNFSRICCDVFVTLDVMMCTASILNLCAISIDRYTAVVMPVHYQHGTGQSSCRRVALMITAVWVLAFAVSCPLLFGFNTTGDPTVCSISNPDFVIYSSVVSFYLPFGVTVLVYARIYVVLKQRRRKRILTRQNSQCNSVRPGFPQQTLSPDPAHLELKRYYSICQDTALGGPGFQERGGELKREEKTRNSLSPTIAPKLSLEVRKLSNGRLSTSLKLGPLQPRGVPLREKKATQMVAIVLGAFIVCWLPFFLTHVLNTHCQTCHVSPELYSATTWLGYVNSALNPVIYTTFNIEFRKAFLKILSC

Biological target: D(3) dopamine receptor (Homo sapiens) (UniProt P35462)
Assay: qHTS of D3 Dopamine Receptor Antagonist: qHTS
Conditions: D3R cells, DiscoveRx beta-arrestin luminescence, antagonist mode; stronger effect = lower value
Method in brief: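 Cells expressing the human receptor were seeded at 1500 cells/well, incubated overnight at 37 degrees C in 5% CO2, then exposed to library compounds with dopamine controls for 90 minutes at 37 degrees C before luminescent detection.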
% is set by controls: 0 for no effect and ±100 for the full control effect.

Row | Structure (SMILES) | max response, negative = inhibition
1 | CCOC(=O)N1CCN(CCC(=O)Nc2ccc(C)c(Br)c2)CC1 | inconclusive: -34.6%
2 | CCOCCCN(C)C1CCN(C(=O)c2oc3ccccc3c2NC(=O)Cc2cccc([N+](=O)[O-])c2)CC1 | inconclusive: -33.9%
3 | CC(=O)Nc1sc(C)c(C)c1C(=O)OCC(=O)NCc1ccc(Cl)cc1 | inactive: 23.1%
4 | CC(=O)c1cccc(NC(=O)c2ccc3c(c2)CCCC3)c1 | inconclusive: -34.5%
5 | CCOc1cc(/C=C/C(=O)c2ccc3c(c2)OCCO3)ccc1OCC(=O)N(C)C | inactive: -4.98%
6 | Nc1nonc1-n1nnc(C(=O)N/N=C/c2cccc(Cl)c2Cl)c1CN1CCCC1 | inconclusive: -47.8%
7 | CC1=C(C(=O)N2CCOCC2)CC(CC(=O)NCc2cccs2)C(=O)N1Cc1ccccc1 (centres undefined) | inactive: 7.74%
8 | CCOC(=O)c1ccc(NC(=O)Nc2ccon2)cc1 | inconclusive: -32.5%
9 | Cc1cc2n(n1)SC(Nc1ccc(F)cc1)N2 (centres undefined) | inconclusive: -33.9%
10 | COc1ccc(NC(=O)c2cc(=O)c3ccccc3o2)cn1 | inconclusive: -45.7%
11 | O=C1CCC2CCCCC2(O)O1 (centres undefined) | inconclusive: -45.4%
12 | COc1ccc(-n2c(=O)[nH]cc(C(=O)Nc3ccccc3)c2=O)cc1 | inconclusive: -48.1%
13 | Cc1ccc(S(=O)(=O)CC(=O)Nc2ccc(S(=O)(=O)Nc3onc(C)c3C)cc2)cc1 | inactive: 7.04%
14 | CN1CCN(C(=O)c2cc(-c3cccc(Cl)c3)on2)CC1 | inconclusive: -32.4%
15 | O=C(OC12CC3CC(CC(C3)C1)C2)c1ccc(NCc2cc(O)ccc2O)cc1 | inconclusive: -48.7%
16 | COc1cc(CN2CCNC(=O)C2CC(=O)NC2CCCCC2)cc(OC)c1 (centres undefined) | inconclusive: -41.9%
17 | O=C(Nc1cccc(Cl)c1)C1=CC=CN2CCS(=O)(=O)N=C12 | inconclusive: -31.5%
18 | COc1ccccc1C(=O)NCCC(=O)N1CCN(c2cccc(C(F)(F)F)c2)CC1 | inactive: 1.41%
19 | COc1ccc(N/N=C(\C#N)C(N)=O)cc1 | inactive: -4.6%
20 | COc1ccccc1C(=O)Nc1ccccc1SC(=O)c1ccccc1OC | active: -56.5%

Some of the entries so far, as tab-separated lines.
Row	Structure (SMILES)	max response, negative = inhibition
8	CCOC(=O)c1ccc(NC(=O)Nc2ccon2)cc1	inconclusive: -32.5%
9	Cc1cc2n(n1)SC(Nc1ccc(F)cc1)N2 (centres undefined)	inconclusive: -33.9%
10	COc1ccc(NC(=O)c2cc(=O)c3ccccc3o2)cn1	inconclusive: -45.7%
11	O=C1CCC2CCCCC2(O)O1 (centres undefined)	inconclusive: -45.4%

More entries follow.

Row | Structure (SMILES) | max response, negative = inhibition
21 | Cc1ccc(-c2noc(CCC(=O)NCCCN3CCN(c4cccc(Cl)c4)CC3)n2)cc1 | inconclusive: -36.8%
22 | O=C(c1ccc(Cl)cc1)C1CCN(Cc2ccccc2)CC1 | active: -114%
23 | Cc1nc2c(OCc3ccc(C(F)(F)F)cc3)cccn2c1N(C)Cc1cccs1 | inactive: -25.2%
24 | Cc1ccc2oc(C(=O)NCC(c3ccco3)N3CCCC3)c(C)c2c1 (centres undefined) | inconclusive: -43%
25 | C=C(Cl)COc1ccc2c(CC)cc(=O)oc2c1 | inactive: 2.57%
26 | COc1ccccc1N1CCN(CC(=O)c2c(C)n(C)c3ccccc23)CC1 | inconclusive: -46.1%
27 | O=C1NC(=S)SC1=C1CCCCCC1 | inconclusive: -33.5%
28 | CC1CCN(CC(O)COC2CC(C)CC(C)(C)C2)CC1 (centres undefined) | inconclusive: -34.6%
29 | CN1CCN(c2oc(-c3ccccc3F)nc2S(=O)(=O)c2ccc(Cl)cc2)CC1 | inconclusive: -49.8%
30 | COc1ccccc1Nc1nc(-c2c(C)nc3ncccn23)cs1 | inactive: 22.4%
31 | Cc1cc(C)c(C2C(C#N)=C(N)Oc3n[nH]c(C)c32)cc1CN1CCOCC1 (centres undefined) | active: -60.5%
32 | C=CCc1ccc(OCCOCCN(C)C)c(OC)c1 | active: -70.9%
33 | CC(=O)Oc1ccc2c(c1)C(=O)CCCCCC(=O)O2 | active: -70%
34 | Cc1cc2nc(-c3ccc(F)cc3)c(Cc3cccc(Cl)c3)n2c(C)c1Br | inconclusive: -33.8%
35 | Cc1cccc(-c2cc(C(=O)Nc3cccnc3)c3ccccc3n2)c1 | inactive: 28.3%
36 | CN(C)CCCNc1oc(-c2ccc(Cl)cc2)nc1C#N | inactive: -16.7%
37 | COc1cnc(-c2ccccn2)nc1NC(C)C | inconclusive: -39.6%
38 | CCOc1ccccc1Oc1c(C)oc2c(CN3CCN(C)CC3)c(O)ccc2c1=O | inconclusive: -33.3%
39 | CCN1CCCC1CN(Cc1cc2ccc(C)cc2[nH]c1=O)C(=S)Nc1ccccc1OC (centres undefined) | inconclusive: -49.2%
40 | CC(=O)Oc1ccc2occ(/C=N/c3cc(=O)[nH]c(=S)[nH]3)c(=O)c2c1 | inconclusive: -31.9%

Row | Structure (SMILES) | max response, negative = inhibition
41 | COc1ccccc1NS(=O)(=O)NC(=O)c1cn(C)c2ccccc12 | inactive: 11.6%
42 | CC(=O)OCc1nc2ccccc2s1 | inconclusive: -30.5%
43 | COc1cc(OC)nc(Nc2nc(C(N)Cc3ccccc3)cs2)n1 (centres undefined) | inconclusive: -38.8%
44 | Fc1ccccc1Nc1n[nH]c(=S)s1 | inactive: -17.2%
45 | Cc1cccc(N2CCN(CC(=O)NCC3CCCCC3)CC2)c1C | active: -63%
46 | Cc1cc(C)cc(OCC(=O)NC(C)c2ccccc2)c1 (centres undefined) | inconclusive: -46.6%
47 | Cc1nc2ccccc2c2nc(NC(=O)Cc3ccccc3)nn12 | inconclusive: -30.2%
48 | Cc1ccccc1C(=O)NCC(=O)OCC(=O)NNC(=O)c1ccccc1F | inconclusive: -49%
49 | Nc1c(Br)cc(Br)c(N2CCCC2=O)c1Br | inconclusive: -38.4%
50 | COc1ccc(-c2cc(=O)c(C(=O)c3ccc(C)cc3)n[nH]2)cc1 | inactive: -3%
51 | O=C(COC(=O)c1ccccc1C(=O)c1ccc(Cl)c([N+](=O)[O-])c1)NC1CC1 | active: -65.9%
52 | CON(C)C(=O)/C=C/CCCCNC(=O)OC(C)(C)C | inconclusive: -37.9%
53 | O=C1NC[C@H](CCCCN2C[C@@H](Cc3ccccc3)N(Cc3ccccc3)C(=O)C2=O)N(CCC2CCCCC2)C1=O | inactive: 6.23%
54 | CC(Cc1ccccc1)C(=O)NCc1ccccn1 (centres undefined) | inconclusive: -33.5%
55 | COc1cc(C)c(CNC2CCCCC2)cc1C | inconclusive: -37.3%
56 | CC1CCN(C(=O)CSc2ccc(-c3cccc([N+](=O)[O-])c3)nn2)CC1 | inactive: 12.9%
57 | O=C(C1CCCN1C(=O)c1cccs1)N1CCc2ccccc21 (centres undefined) | inconclusive: -36.7%
58 | CCc1cccc(C)c1NC(=O)c1cc(C)oc1C | inconclusive: -48.9%
59 | Nc1nc(N2CCN(C/C=C/c3ccccc3)CC2)nc2ccccc12 | active: -63.9%
